# Test results published in patent publication US10525115B2 (Immatics Biotechnologies GmbH, priority 2014, dated 2020).
# B1: CHD1L (protein, UniProt Q86WJ1 1-897, looked up)
# Chromodomain-helicase-DNA-bind …: MERAGATSRGGQAPGFLLRLHTEGRAEAARVQEQDLRQWGLTGIHLRSYQLEGVNWLAQRFHCQNGCILGDEMGLGKTCQTIALFIYLAGRLNDEGPFLILCPLSVLSNWKEEMQRFAPGLSCVTYAGDKEERACLQQDLKQESRFHVLLTTYEICLKDASFLKSFPWSVLVVDEAHRLKNQSSLLHKTLSEFSVVFSLLLTGTPIQNSLQELYSLLSFVEPDLFSKEEVGDFIQRYQDIEKESESASELHKLLQPFLLRRVKAEVATELPKKTEVVIYHGMSALQKKYYKAILMKDLDAFENETAKKVKLQNILSQLRKCVDHPYLFDGVEPEPFEVGDHLTEASGKLHLLDKLLAFLYSGGHRVLLFSQMTQMLDILQDYMDYRGYSYERVDGSVRGEERHLAIKNFGQQPIFVFLLSTRAGGVGMNLTAADTVIFVDSDFNPQNDLQAAARAHRIGQNKSVKVIRLIGRDTVEEIVYRKAASKLQLTNMIIEGGHFTLGAQKPAADADLQLSEILKFGLDKLLASEGSTMDEIDLESILGETKDGQWVSDALPAAEGGSRDQEEGKNHMYLFEGKDYSKEPSKEDRKSFEQLVNLQKTLLEKASQEGRSLRNKGSVLIPGLVEGSTKRKRVLSPEELEDRQKKRQEAAAKRRRLIEEKKRQKEEAEHKKKMAWWESNNYQSFCLPSEESEPEDLENGEESSAELDYQDPDATSLKYVSGDVTHPQAGAEDALIVHCVDDSGHWGRGGLFTALEKRSAEPRKIYELAGKMKDLSLGGVLLFPVDDKESRNKGQDLLALIVAQHRDRSNVLSGIKMAALEEGLKKIFLAAKKKKASVHLPRIGHATKGFNWYGTERLIRKHLAARGIPTYIYYFPRSKSAVLHSQSSSSSSRQLVP
# B2: DDX46 (protein, UniProt Q7L014 2-1031, looked up)
# Probable ATP-dependent RNA …: GRESRHYRKRSASRGRSGSRSRSRSPSDKRSKRGDDRRSRSRDRDRRRERSRSRDKRRSRSRDRKRLRRSRSRERDRSRERRRSRSRDRRRSRSRSRGRRSRSSSPGNKSKKTENRSRSKEKTDGGESSKEKKKDKDDKEDEKEKDAGNFDQNKLEEEMRKRKERVEKWREEQRKKAMENIGELKKEIEEMKQGKKWSLEDDDDDEDDPAEAEKEGNEMEGEELDPLDAYMEEVKEEVKKFNMRSVKGGGGNEKKSGPTVTKVVTVVTTKKAVVDSDKKKGELMENDQDAMEYSSEEEEVDLQTALTGYQTKQRKLLEPVDHGKIEYEPFRKNFYVEVPELAKMSQEEVNVFRLEMEGITVKGKGCPKPIKSWVQCGISMKILNSLKKHGYEKPTPIQTQAIPAIMSGRDLIGIAKTGSGKTIAFLLPMFRHIMDQRSLEEGEGPIAVIMTPTRELALQITKECKKFSKTLGLRVVCVYGGTGISEQIAELKRGAEIIVCTPGRMIDMLAANSGRVTNLRRVTYVVLDEADRMFDMGFEPQVMRIVDNVRPDRQTVMFSATFPRAMEALARRILSKPIEVQVGGRSVVCSDVEQQVIVIEEEKKFLKLLELLGHYQESGSVIIFVDKQEHADGLLKDLMRASYPCMSLHGGIDQYDRDSIINDFKNGTCKLLVATSVAARGLDVKHLILVVNYSCPNHYEDYVHRAGRTGRAGNKGYAYTFITEDQARYAGDIIKALELSGTAVPPDLEKLWSDFKDQQKAEGKIIKKSSGFSGKGFKFDETEQALANERKKLQKAALGLQDSDDEDAAVDIDEQIESMFNSKKRVKDMAAPGTSSVPAPTAGNAEKLEIAKRLALRINAQKNLGIESQDVMQQATNAILRGGTILAPTVSAKTIAEQLAEKINAKLNYVPLEKQEEERQDGGQNESFKRYEEELEINDFPQTARWKVTSKEALQRISEYSEAAITIRGTYFPPGKEPKEGERKIYLAIESANELAVQKAKAEITRLIKEELIRLQNSYQPTNKGRYKVL
# B3: LRRC8D (protein, UniProt Q7L1W4 1-858, looked up)
# Volume-regulated anion …: MFTLAEVASLNDIQPTYRILKPWWDVFMDYLAVVMLMVAIFAGTMQLTKDQVVCLPVLPSPVNSKAHTPPGNAEVTTNIPKMEAATNQDQDGRTTNDISFGTSAVTPDIPLRATYPRTDFALPNQEAKKEKKDPTGRKTNLDFQQYVFINQMCYHLALPWYSKYFPYLALIHTIILMVSSNFWFKYPKTCSKVEHFVSILGKCFESPWTTKALSETACEDSEENKQRITGAQTLPKHVSTSSDEGSPSASTPMINKTGFKFSAEKPVIEVPSMTILDKKDGEQAKALFEKVRKFRAHVEDSDLIYKLYVVQTVIKTAKFIFILCYTANFVNAISFEHVCKPKVEHLIGYEVFECTHNMAYMLKKLLISYISIICVYGFICLYTLFWLFRIPLKEYSFEKVREESSFSDIPDVKNDFAFLLHMVDQYDQLYSKRFGVFLSEVSENKLREISLNHEWTFEKLRQHISRNAQDKQELHLFMLSGVPDAVFDLTDLDVLKLELIPEAKIPAKISQMTNLQELHLCHCPAKVEQTAFSFLRDHLRCLHVKFTDVAEIPAWVYLLKNLRELYLIGNLNSENNKMIGLESLRELRHLKILHVKSNLTKVPSNITDVAPHLTKLVIHNDGTKLLVLNSLKKMMNVAELELQNCELERIPHAIFSLSNLQELDLKSNNIRTIEEIISFQHLKRLTCLKLWHNKIVTIPPSITHVKNLESLYFSNNKLESLPVAVFSLQKLRCLDVSYNNISMIPIEIGLLQNLQHLHITGNKVDILPKQLFKCIKLRTLNLGQNCITSLPEKVGQLSQLTQLELKGNCLDRLPAQLGQCRMLKKSGLVVEDHLFDTLPLEVKEALNQDINIPFANGI
# B4: GANC (protein, UniProt Q8TET4 1-914, looked up)
# Neutral alpha-glucosidase C: MEAAVKEEISLEDEAVDKNIFRDCNKIAFYRRQKQWLSKKSTYQALLDSVTTDEDSTRFQIINEASKVPLLAEIYGIEGNIFRLKINEETPLKPRFEVPDVLTSKPSTVRLISCSGDTGSLILADGKGDLKCHITANPFKVDLVSEEEVVISINSLGQLYFEHLQILHKQRAAKENEEETSVDTSQENQEDLGLWEEKFGKFVDIKANGPSSIGLDFSLHGFEHLYGIPQHAESHQLKNTGDGDAYRLYNLDVYGYQIYDKMGIYGSVPYLLAHKLGRTIGIFWLNASETLVEINTEPAVEYTLTQMGPVAAKQKVRSRTHVHWMSESGIIDVFLLTGPTPSDVFKQYSHLTGTQAMPPLFSLGYHQCRWNYEDEQDVKAVDAGFDEHDIPYDAMWLDIEHTEGKRYFTWDKNRFPNPKRMQELLRSKKRKLVVISDPHIKIDPDYSVYVKAKDQGFFVKNQEGEDFEGVCWPGLSSYLDFTNPKVREWYSSLFAFPVYQGSTDILFLWNDMNEPSVFRGPEQTMQKNAIHHGNWEHRELHNIYGFYHQMATAEGLIKRSKGKERPFVLTRSFFAGSQKYGAVWTGDNTAEWSNLKISIPMLLTLSITGISFCGADIGGFIGNPETELLVRWYQAGAYQPFFRGHATMNTKRREPWLFGEEHTRLIREAIRERYGLLPYWYSLFYHAHVASQPVMRPLWVEFPDELKTFDMEDEYMLGSALLVHPVTEPKATTVDVFLPGSNEVWYDYKTFAHWEGGCTVKIPVALDTIPVFQRGGSVIPIKTTVGKSTGWMTESSYGLRVALSTKGSSVGELYLDDGHSFQYLHQKQFLHRKFSFCSSVLINSFADQRGHYPSKCVVEKILVLGFRKEPSSVTTHSSDGKDQPVAFTYCAKTSILSLEKLSLNIATDWEVRII
# B5: BBS1 (protein, UniProt Q8NFJ9 2-593, looked up)
# BBSome complex member BBS1: AAASSSDSDACGAESNEANSKWLDAHYDPMANIHTFSACLALADLHGDGEYKLVVGDLGPGGQQPRLKVLKGPLVMTESPLPALPAAAATFLMEQHEPRTPALALASGPCVYVYKNLRPYFKFSLPQLPPNPLEQDLWNQAKEDRIDPLTLKEMLESIRETAEEPLSIQSLRFLQLELSEMEAFVNQHKSNSIKRQTVITTMTTLKKNLADEDAVSCLVLGTENKELLVLDPEAFTILAKMSLPSVPVFLEVSGQFDVEFRLAAACRNGNIYILRRDSKHPKYCIELSAQPVGLIRVHKVLVVGSTQDSLHGFTHKGKKLWTVQMPAAILTMNLLEQHSRGLQAVMAGLANGEVRIYRDKALLNVIHTPDAVTSLCFGRYGREDNTLIMTTRGGGLIIKILKRTAVFVEGGSEVGPPPAQAMKLNVPRKTRLYVDQTLREREAGTAMHRAFQTDLYLLRLRAARAYLQALESSLSPLSTTAREPLKLHAVVQGLGPTFKLTLHLQNTSTTRPVLGLLVCFLYNEALYSLPRAFFKVPLLVPGLNYPLETFVESLSNKGISDIIKVLVLREGQSAPLLSAHVNMPGSEGLAAA
# B6: RNF19B (protein, UniProt Q6ZMZ0 1-732, looked up)
# E3 ubiquitin-protein ligase …: MGSEKDSESPRSTSLHAAAPDPKCRSGGRRRRLTLHSVFSASARGRRARAKPQAEPPPPAAQPPPAPAPAAAQGPPPEALPAEPAAEAEAEAAAAAAEPGFDDEEAAEGGGPGAEEVECPLCLVRLPPERAPRLLSCPHRSCRDCLRHYLRLEISESRVPISCPECSERLNPHDIRLLLADPPLMHKYEEFMLRRYLASDPDCRWCPAPDCGYAVIAYGCASCPKLTCEREGCQTEFCYHCKQIWHPNQTCDMARQQRAQTLRVRTKHTSGLSYGQESGPADDIKPCPRCSAYIIKMNDGSCNHMTCAVCGCEFCWLCMKEISDLHYLSPSGCTFWGKKPWSRKKKILWQLGTLIGAPVGISLIAGIAIPAMVIGIPVYVGRKIHSRYEGRKTSKHKRNLAITGGVTLSVIASPVIAAVSVGIGVPIMLAYVYGVVPISLCRGGGCGVSTANGKGVKIEFDEDDGPITVADAWRALKNPSIGESSIEGLTSVLSTSGSPTDGLSVMQGPYSETASFAALSGGTLSGGILSSGKGKYSRLEVQADVQKEIFPKDTASLGAISDNASTRAMAGSIISSYNPQDRECNNMEIQVDIEAKPSHYQLVSGSSTEDSLHVHAQMAENEEEGSGGGGSEEDPPCRHQSCEQKDCLASKPWDISLAQPESIRSDLESSDAQSDDVPDITSDECGSPRSHTAACPSTPRAQGAPSPSAHMNLSALAEGQTVLKPEGGEARV
# Test system: primary AML samples
# Assay: HLA class I ligandome analysis (W6/32 immunoaffinity purification, LC-MS/MS) of primary AML samples
# Design: species or system human
# Conditions: for Number of positive AMLs: AML patients (n=15); for Number of positive AMLs [rep. frequency]: representation frequency of the source protein (LiTAA) in AML patients (n=15); for rep. frequency: representation frequency in AML patients (n=15)
# [1] = HLA class I ligandome, count for the HLA ligand (LiTAP) or, on protein lines, for the source protein (LiTAA)
Molecule,Number of positive AMLs [1],Number of positive AMLs [rep. frequency],Number of positive AMLs (source protein (LiTAA)),rep. frequency (source protein (LiTAA))
B1,5,[33.3%],–,–
B2,–,–,3,[20.0%]
B3,–,–,3,[20.0%]
B4,–,–,3,[20.0%]
B5,–,–,3,[20.0%]
B6,3,[20.0%],–,–
